Results from publication PMC7587437.
No constants are given. Whether binding was seen depends on the method and setting. Binding seen in cells or lysates may run through a third protein. Some binding calls cover weakened binding; strength is not graded here. For part of these data: Sequences can lack the tags named with a protein.

By UniProt entry, the sequences of proteins in these tests, tags left out.
UniProt P0A6X3: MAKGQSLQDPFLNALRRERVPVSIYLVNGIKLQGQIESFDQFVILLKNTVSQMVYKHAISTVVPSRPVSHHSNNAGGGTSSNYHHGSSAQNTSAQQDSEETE

T1: native RNase R (Escherichia coli (endogenous in E. coli K-12 MG1693)) (UniProt P21499)
T1 sequence: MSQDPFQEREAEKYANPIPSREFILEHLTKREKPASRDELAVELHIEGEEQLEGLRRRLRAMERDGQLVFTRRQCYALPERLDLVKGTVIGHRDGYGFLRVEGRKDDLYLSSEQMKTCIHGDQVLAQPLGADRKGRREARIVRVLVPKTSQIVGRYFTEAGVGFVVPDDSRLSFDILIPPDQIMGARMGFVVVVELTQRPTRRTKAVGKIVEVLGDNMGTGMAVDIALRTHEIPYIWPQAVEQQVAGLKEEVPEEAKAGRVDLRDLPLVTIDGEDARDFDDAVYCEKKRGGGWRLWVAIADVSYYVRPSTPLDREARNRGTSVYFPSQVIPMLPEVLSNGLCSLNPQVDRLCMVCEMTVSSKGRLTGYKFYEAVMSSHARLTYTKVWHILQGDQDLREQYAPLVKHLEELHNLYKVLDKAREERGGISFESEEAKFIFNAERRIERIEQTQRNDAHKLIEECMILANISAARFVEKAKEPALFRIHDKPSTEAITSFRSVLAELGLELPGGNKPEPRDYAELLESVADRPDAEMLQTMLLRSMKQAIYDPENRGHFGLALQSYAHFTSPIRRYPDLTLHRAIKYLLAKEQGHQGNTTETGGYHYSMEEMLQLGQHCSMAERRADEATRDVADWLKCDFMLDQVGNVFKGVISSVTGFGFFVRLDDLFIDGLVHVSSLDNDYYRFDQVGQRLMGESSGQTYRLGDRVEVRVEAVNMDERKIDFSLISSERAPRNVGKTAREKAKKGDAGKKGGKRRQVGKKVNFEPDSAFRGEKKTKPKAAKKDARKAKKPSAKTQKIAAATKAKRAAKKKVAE

T2: His6-RNase R (Escherichia coli) (UniProt P21499)
T2 sequence: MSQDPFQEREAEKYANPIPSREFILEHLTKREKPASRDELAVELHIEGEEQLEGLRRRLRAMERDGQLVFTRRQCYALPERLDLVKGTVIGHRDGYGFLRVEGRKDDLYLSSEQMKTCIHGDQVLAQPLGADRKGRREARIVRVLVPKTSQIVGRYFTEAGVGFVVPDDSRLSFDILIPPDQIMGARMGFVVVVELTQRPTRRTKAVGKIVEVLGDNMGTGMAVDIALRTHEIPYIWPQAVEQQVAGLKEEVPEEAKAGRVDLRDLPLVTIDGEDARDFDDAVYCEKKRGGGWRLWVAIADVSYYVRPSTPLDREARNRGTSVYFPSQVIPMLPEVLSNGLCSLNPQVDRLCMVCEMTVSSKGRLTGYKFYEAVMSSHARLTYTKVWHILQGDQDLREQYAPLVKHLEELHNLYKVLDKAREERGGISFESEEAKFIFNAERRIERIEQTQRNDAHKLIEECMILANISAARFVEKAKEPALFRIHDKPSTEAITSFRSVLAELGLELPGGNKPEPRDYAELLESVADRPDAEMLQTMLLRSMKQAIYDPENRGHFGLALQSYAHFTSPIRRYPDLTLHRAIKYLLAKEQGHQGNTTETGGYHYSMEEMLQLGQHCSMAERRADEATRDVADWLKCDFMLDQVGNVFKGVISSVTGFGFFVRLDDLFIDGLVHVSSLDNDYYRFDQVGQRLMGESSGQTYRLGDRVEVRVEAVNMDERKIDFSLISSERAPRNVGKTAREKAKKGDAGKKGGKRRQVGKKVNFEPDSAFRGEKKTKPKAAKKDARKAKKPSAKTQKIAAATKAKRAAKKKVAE


Tests used:
[1] = target: T1, native RNase R (Escherichia coli (endogenous in E. coli K-12 MG1693)); assay: co-IP; polyclonal anti-RNase R antibody on protein A/G agarose beads (Pierce Crosslink IP kit), E. coli cell lysates (wild type, Δhfq, Δrnr); Hfq detected by Western blot
[2] = target: T2, His6-RNase R (Escherichia coli); assay: pull-down; purified His6-RNase R immobilised on Ni-NTA beads, incubated with wild-type cell lysate overnight at 4°C; Western blot with anti-Hfq antibody; only the target purified
[3] = target: His6-Hfq (Escherichia coli) (UniProt P0A6X3); assay: pull-down; purified His6-Hfq immobilised on Ni-NTA beads, incubated with wild-type cell lysate overnight at 4°C; eluted with imidazole; Western blot with anti-RNase R antibody; only the target purified

binding [1]	binding [2]	binding [3]	Molecule
binds	binds	–	native Hfq (from UniProt P0A6X3 1-102)
–	–	binds	native RNase R (enzyme, UniProt P21499 1-813) MSQDPFQEREAEKYANPIPSREFILEHLTKREKPASRDELAVELHIEGEEQLEGLRRRLRAMERDGQLVFTRRQCYALPERLDLVKGTVIGHRDGYGFLRVEGRKDDLYLSSEQMKTCIHGDQVLAQPLGADRKGRREARIVRVLVPKTSQIVGRYFTEAGVGFVVPDDSRLSFDILIPPDQIMGARMGFVVVVELTQRPTRRTKAVGKIVEVLGDNMGTGMAVDIALRTHEIPYIWPQAVEQQVAGLKEEVPEEAKAGRVDLRDLPLVTIDGEDARDFDDAVYCEKKRGGGWRLWVAIADVSYYVRPSTPLDREARNRGTSVYFPSQVIPMLPEVLSNGLCSLNPQVDRLCMVCEMTVSSKGRLTGYKFYEAVMSSHARLTYTKVWHILQGDQDLREQYAPLVKHLEELHNLYKVLDKAREERGGISFESEEAKFIFNAERRIERIEQTQRNDAHKLIEECMILANISAARFVEKAKEPALFRIHDKPSTEAITSFRSVLAELGLELPGGNKPEPRDYAELLESVADRPDAEMLQTMLLRSMKQAIYDPENRGHFGLALQSYAHFTSPIRRYPDLTLHRAIKYLLAKEQGHQGNTTETGGYHYSMEEMLQLGQHCSMAERRADEATRDVADWLKCDFMLDQVGNVFKGVISSVTGFGFFVRLDDLFIDGLVHVSSLDNDYYRFDQVGQRLMGESSGQTYRLGDRVEVRVEAVNMDERKIDFSLISSERAPRNVGKTAREKAKKGDAGKKGGKRRQVGKKVNFEPDSAFRGEKKTKPKAAKKDARKAKKPSAKTQKIAAATKAKRAAKKKVAE
